Values of other authors, collected in patent EP1086695B1, “Antiviral compositions comprising yohimbine as active principle” (Leone, Enzo, priority 1999, dated 2001).
Some results were stated once for a whole list of compounds, not compound by compound.

Tested on: reverse transcriptase
Conditions: alkaloids containing no quaternary nitrogen; literature study; cited from earlier work

For `COC(=O)[C@@H]1[C@H]2C[C@H]3c4[nH]c5ccccc5c4CCN3C[C@@H]2CC[C@@H]1O` [yohimbine, methyl 17-alpha-hydroxy-20-alpha-yohimban-16-beta-carboxylate], the reverse trancriptase activity is given as “did not show any significant reverse trancriptase activity”.
